Among the data in paper PMC12815910 are binding values, retold here.

For this assay, the target named is T1, Flag-MCARE (muscle-enriched Ca2+ regulator; transmembrane protein 233) (mouse) (UniProt D3Z1U7).
T1 sequence: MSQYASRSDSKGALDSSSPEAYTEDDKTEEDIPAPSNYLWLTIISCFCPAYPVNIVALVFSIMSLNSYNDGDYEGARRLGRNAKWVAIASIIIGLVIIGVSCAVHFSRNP
Description: co-IP; HEK293 cells co-transfected; lysates (500 ug protein) in Co-IP buffer (20 mM NaPO4, 150 mM NaCl, 2 mM MgCl2, 0.1% NP-40, 10% glycerol, pH 7.4, 1 mM DTT) incubated with anti-DDDDK-tag mAb-magnetic agarose 60 min at 4 °C; eluted with 3× FLAG peptide; Western blot.

No constants are given. Whether binding was seen depends on the method and setting. In cells and extracts the contact can be indirect. Sequences can lack the tags named with a protein.

As to SERCA2 (mouse), the binding entry is “no binding”.
